± gives the standard deviation of the averaged measurements. Only a part is listed here, and it is no random draw. Most entries show no effect beyond the scatter of the controls.
Compound: Nc1ncnc2c1ncn2[C@@H]1O[C@H](COP(=O)(O)OP(=O)(O)NP(=O)(O)O)[C@@H](O)[C@H]1O [adenylyl imidodiphosphate]
Experiment: NP40-soluble protein abundance relative to vehicle (solubility fold change) (ratio); higher = more soluble protein in presence of AMP-PNP
How it was run: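 Jurkat crude lysate prepared with a Dounce homogeniser was treated at eight concentrations spanning 0.1 to 10 mM, 10 min at room temperature then 3 min at 37 °C. Solubilisation with 0.8% NP40 and benzonase and ultracentrifugation preceded TMT labelling of the supernatant for LC-MS/MS. Fold change against the detergent-processed vehicle was determined per replicate from vsn-normalised intensities, across three independent experiments.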

The chains behind the UniProt entries cited, without tags or fusion partners. Where a name states a change or a piece, a line headed by the entry shows the natural chain unless it says otherwise.
UniProt Q9BZF2: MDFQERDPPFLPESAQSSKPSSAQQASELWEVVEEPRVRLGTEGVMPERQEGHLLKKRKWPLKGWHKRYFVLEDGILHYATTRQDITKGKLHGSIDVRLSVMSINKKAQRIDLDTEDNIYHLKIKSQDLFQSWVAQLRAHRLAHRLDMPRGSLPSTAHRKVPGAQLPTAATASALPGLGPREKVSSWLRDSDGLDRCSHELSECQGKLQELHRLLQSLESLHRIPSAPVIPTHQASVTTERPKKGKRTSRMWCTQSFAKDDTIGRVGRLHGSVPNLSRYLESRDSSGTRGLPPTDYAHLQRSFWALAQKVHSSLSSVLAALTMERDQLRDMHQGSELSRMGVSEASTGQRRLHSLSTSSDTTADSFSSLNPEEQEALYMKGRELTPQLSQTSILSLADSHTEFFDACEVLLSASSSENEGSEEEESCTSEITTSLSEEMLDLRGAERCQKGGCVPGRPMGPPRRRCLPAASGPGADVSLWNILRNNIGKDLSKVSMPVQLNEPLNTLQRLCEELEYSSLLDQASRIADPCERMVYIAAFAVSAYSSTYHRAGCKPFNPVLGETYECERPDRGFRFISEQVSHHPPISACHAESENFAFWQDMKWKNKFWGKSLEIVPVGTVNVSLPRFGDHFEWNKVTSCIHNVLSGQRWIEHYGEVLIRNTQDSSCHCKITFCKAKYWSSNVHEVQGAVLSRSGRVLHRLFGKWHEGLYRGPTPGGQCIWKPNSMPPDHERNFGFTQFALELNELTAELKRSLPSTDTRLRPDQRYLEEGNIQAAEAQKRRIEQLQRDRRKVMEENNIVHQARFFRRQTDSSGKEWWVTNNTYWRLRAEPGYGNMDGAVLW
UniProt Q9H410: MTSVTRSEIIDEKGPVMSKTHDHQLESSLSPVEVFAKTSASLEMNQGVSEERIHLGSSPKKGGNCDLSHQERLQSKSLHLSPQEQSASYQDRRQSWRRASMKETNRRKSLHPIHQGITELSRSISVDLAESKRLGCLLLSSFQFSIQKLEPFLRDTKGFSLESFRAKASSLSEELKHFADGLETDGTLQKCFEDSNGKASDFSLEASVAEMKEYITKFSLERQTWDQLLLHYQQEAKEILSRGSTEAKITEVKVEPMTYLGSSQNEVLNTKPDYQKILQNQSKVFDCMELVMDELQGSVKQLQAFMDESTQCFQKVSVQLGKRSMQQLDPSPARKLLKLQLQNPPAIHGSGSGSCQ
UniProt Q9HD47: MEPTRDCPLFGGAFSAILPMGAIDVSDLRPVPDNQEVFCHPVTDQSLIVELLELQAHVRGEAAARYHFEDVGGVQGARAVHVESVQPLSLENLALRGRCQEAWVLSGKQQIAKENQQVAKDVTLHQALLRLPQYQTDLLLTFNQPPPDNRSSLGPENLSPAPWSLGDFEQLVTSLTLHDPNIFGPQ
UniProt Q9H3K6: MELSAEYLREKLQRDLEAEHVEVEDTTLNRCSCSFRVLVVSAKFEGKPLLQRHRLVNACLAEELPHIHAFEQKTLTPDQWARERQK
UniProt Q9H1E3: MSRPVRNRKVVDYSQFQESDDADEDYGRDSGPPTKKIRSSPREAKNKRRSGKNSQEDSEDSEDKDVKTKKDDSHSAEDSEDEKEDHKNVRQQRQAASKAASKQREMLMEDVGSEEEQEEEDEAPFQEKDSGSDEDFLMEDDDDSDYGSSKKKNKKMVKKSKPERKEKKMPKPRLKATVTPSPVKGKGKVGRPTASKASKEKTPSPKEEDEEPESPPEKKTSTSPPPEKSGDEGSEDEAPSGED
UniProt Q9H4B0: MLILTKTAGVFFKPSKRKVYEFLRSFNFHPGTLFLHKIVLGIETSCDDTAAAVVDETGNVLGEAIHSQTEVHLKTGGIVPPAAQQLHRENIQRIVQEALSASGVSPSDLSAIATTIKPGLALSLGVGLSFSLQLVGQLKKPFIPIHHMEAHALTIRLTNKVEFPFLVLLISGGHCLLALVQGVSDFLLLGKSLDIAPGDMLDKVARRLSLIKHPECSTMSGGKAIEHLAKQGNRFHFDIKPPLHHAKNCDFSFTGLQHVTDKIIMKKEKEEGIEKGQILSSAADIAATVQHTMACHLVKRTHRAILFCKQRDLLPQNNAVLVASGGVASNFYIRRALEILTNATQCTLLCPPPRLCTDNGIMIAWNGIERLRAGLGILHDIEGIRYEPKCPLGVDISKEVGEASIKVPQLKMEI
UniProt Q9H6D7: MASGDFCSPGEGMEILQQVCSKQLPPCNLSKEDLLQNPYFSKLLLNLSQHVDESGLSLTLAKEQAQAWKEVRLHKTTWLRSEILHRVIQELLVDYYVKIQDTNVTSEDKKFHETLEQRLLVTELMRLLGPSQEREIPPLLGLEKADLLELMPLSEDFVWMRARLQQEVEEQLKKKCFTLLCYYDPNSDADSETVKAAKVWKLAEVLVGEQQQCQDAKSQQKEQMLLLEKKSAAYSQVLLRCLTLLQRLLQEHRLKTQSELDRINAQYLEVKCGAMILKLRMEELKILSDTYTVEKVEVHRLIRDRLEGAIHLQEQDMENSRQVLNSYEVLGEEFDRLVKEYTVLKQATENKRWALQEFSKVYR
UniProt Q9H2P0: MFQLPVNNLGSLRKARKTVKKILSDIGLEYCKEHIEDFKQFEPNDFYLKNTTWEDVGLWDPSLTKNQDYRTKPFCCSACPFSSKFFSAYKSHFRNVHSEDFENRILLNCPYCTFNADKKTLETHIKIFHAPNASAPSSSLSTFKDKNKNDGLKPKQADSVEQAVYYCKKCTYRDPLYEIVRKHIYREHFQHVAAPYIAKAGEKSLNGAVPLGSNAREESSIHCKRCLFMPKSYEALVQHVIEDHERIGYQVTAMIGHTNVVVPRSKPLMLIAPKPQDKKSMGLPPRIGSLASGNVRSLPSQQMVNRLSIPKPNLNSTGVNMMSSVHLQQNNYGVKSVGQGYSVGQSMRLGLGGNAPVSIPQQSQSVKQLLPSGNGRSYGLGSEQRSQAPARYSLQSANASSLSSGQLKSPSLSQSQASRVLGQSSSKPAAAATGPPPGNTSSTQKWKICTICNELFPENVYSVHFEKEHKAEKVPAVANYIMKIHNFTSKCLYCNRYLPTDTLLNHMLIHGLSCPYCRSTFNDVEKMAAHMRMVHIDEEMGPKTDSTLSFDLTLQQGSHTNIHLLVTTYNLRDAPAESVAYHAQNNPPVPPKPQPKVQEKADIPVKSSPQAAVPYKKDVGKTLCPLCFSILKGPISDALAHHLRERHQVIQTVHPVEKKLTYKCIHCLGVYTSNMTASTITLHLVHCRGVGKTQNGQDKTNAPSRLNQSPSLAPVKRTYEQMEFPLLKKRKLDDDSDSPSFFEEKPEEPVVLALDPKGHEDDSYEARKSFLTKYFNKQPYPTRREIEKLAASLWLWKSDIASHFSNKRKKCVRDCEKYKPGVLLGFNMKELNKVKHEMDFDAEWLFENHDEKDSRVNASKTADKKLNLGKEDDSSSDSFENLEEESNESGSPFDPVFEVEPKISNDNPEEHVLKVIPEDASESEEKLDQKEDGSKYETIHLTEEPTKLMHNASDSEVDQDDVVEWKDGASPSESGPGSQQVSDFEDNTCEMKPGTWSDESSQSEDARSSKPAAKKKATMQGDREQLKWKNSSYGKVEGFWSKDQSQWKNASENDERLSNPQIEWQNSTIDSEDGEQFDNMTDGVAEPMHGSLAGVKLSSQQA
UniProt Q9HBK9: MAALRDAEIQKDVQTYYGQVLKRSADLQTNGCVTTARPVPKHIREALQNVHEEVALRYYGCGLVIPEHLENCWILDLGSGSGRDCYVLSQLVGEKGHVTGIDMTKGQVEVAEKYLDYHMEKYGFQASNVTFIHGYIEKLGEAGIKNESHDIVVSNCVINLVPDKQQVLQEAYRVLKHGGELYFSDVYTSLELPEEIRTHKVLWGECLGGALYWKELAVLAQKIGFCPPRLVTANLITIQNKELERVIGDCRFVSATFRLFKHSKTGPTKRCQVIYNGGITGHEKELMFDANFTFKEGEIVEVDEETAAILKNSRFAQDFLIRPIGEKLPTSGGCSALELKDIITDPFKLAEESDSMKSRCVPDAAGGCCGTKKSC
UniProt Q9H0R6: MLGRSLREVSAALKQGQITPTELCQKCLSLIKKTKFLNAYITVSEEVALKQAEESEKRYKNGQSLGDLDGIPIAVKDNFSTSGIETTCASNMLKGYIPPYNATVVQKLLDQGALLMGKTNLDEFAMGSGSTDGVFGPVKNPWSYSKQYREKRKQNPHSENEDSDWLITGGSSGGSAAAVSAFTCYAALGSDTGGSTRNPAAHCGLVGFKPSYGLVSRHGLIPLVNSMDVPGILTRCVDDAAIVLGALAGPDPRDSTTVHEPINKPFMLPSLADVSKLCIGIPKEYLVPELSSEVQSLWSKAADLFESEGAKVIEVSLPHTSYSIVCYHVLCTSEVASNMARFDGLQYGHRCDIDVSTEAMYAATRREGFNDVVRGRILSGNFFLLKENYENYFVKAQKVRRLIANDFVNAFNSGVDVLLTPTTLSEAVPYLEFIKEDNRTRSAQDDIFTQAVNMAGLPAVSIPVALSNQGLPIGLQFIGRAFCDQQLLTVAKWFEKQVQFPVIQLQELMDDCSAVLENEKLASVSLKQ
UniProt Q9GZT9: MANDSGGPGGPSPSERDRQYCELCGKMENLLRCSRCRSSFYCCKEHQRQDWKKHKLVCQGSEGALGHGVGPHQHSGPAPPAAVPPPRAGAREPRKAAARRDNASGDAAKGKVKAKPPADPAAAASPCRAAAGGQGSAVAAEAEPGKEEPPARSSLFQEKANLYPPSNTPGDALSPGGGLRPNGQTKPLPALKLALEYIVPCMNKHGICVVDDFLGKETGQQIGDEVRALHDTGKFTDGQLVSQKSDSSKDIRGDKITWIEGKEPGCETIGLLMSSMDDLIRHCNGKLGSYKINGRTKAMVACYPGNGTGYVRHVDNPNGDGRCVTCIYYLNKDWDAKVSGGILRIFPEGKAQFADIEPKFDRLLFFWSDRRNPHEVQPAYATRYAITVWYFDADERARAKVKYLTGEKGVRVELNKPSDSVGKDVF
UniProt Q9H4G4: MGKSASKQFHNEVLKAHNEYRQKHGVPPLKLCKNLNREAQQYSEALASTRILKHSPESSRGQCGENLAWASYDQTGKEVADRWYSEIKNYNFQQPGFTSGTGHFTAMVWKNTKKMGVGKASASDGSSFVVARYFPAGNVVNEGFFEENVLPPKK
UniProt Q9HA77: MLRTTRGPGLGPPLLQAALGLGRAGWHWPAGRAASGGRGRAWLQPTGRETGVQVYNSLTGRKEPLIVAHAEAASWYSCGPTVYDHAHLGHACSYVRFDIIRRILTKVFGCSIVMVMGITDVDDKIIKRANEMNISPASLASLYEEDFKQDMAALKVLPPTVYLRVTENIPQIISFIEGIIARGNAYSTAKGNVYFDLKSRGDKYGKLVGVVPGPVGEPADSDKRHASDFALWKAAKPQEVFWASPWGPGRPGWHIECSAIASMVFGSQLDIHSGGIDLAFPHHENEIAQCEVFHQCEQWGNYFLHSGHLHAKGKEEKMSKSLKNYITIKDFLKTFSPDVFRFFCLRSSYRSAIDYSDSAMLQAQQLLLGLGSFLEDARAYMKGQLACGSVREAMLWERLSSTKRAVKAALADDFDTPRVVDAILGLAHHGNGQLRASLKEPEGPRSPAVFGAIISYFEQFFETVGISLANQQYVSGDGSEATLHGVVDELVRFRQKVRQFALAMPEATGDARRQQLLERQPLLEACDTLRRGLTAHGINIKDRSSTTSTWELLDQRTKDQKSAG
UniProt Q9H8M5: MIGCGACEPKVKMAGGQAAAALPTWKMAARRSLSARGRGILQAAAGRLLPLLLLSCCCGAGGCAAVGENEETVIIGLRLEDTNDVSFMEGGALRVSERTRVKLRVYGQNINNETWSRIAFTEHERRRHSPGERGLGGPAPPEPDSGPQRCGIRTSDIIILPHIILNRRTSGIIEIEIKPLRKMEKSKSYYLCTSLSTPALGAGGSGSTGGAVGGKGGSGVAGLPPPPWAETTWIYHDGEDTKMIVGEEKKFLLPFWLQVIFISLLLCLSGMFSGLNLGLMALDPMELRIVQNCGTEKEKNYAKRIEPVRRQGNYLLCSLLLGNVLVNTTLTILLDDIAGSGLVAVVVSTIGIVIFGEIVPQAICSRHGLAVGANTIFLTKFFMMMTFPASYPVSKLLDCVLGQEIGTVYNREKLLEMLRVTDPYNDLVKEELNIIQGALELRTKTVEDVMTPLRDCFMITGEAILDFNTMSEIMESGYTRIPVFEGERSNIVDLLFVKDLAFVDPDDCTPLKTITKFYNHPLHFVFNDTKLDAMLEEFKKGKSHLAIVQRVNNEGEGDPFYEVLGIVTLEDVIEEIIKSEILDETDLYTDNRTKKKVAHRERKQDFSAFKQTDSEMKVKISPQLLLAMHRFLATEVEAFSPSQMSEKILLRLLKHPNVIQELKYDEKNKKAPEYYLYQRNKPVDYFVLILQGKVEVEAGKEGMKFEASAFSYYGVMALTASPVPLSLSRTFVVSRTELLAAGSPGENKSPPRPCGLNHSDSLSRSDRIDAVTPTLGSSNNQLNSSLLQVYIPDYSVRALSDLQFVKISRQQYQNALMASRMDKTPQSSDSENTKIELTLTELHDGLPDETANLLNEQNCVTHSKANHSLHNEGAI

Target	NP40-soluble protein abundance (concentration: 0.1mM)	NP40-soluble protein abundance (concentration: 0.5mM)
UniProt Q9BZF2	0.9981 ± 0.0092	1 ± 0.012
DSN1 (UniProt Q9H410)	0.979 ± 0.024	0.975 ± 0.033
RANGRF (UniProt Q9HD47)	1.02 ± 0.062	1.023 ± 0.0076
BOLA2 (UniProt Q9H3K6)	0.984 ± 0.066	1.07 ± 0.11
MTIF3 (UniProt Q9H2K0)	0.9908 ± 0.0062	0.995 ± 0.017
NUCKS1 (UniProt Q9H1E3)	0.946 ± 0.035	1 ± 0.019
ZWILCH (UniProt Q9H900)	1.01 ± 0.059	0.996 ± 0.036
OSGEPL1 (UniProt Q9H4B0)	1.06 ± 0.048	1.03 ± 0.025
UniProt Q9H1K0	0.985 ± 0.013	0.982 ± 0.044
RACGAP1 (UniProt Q9H0H5)	0.987 ± 0.011	1.02 ± 0.025
UPF2 (UniProt Q9HAU5)	0.9796 ± 0.0083	1 ± 0.029
UniProt Q9H6D7	1.01 ± 0.012	1.03 ± 0.011
SSU72 (UniProt Q9NP77)	0.993 ± 0.015	1.05 ± 0.021
ADNP (UniProt Q9H2P0)	1 ± 0.035	1.01 ± 0.021
UNK (UniProt Q9C0B0)	1.005 ± 0.0037	1.04 ± 0.057
UniProt Q9HBK9 and related entries	0.989 ± 0.021	0.985 ± 0.081
QRSL1 (UniProt Q9H0R6)	0.9459 ± 0.0077	0.947 ± 0.01
EGLN1 (UniProt Q9GZT9)	0.987 ± 0.019	0.989 ± 0.02
PLEKHA3 (UniProt Q9HB20)	0.997 ± 0.021	0.993 ± 0.022
GLIPR2 (UniProt Q9H4G4)	1.01 ± 0.057	1 ± 0.038
CARS2 (UniProt Q9HA77)	1 ± 0.051	0.935 ± 0.074
MYH16 (UniProt Q9H6N6)	0.969 ± 0.026	0.98601 ± 0.00012
UniProt Q9H8M5 and related entries	0.958 ± 0.028	0.986 ± 0.063

Single records, from the list above. Order of values: NP40-soluble protein abundance (concentration: 0.1mM)	NP40-soluble protein abundance (concentration: 0.5mM)
UniProt Q9H1K0 is listed as 0.985 ± 0.013	0.982 ± 0.044
UniProt Q9H6D7 is listed as 1.01 ± 0.012	1.03 ± 0.011

— the supplement of paper PMC6411743
